Source: publication PMC8523568
These are yes or no findings as the source states them, for the method shown. Binding seen in cells or lysates may run through a third protein. These calls come from enrichment with a bait or labelling near it, and not all partners need be listed. Sequences can lack the tags named with a protein.

The chains behind the UniProt entries cited, without tags or fusion partners. Residues count along the entry.
UniProt P11021, residues 19-654: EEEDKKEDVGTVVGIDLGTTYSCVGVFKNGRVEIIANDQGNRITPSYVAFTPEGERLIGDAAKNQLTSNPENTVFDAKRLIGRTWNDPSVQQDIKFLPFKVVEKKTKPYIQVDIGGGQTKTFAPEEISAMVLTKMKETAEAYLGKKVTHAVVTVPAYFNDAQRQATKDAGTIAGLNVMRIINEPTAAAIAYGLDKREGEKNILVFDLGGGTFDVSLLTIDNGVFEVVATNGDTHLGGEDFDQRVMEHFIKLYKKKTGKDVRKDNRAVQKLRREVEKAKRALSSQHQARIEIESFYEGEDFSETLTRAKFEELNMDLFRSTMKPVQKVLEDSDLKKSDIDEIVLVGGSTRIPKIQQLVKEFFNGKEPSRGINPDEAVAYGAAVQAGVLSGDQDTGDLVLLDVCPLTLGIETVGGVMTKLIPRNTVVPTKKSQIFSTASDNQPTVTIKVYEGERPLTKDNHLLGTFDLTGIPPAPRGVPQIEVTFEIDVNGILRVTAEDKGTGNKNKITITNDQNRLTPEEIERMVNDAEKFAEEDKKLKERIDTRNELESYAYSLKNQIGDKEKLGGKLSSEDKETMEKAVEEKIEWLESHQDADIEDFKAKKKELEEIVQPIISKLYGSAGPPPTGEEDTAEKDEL
UniProt P25705, residues 44-553: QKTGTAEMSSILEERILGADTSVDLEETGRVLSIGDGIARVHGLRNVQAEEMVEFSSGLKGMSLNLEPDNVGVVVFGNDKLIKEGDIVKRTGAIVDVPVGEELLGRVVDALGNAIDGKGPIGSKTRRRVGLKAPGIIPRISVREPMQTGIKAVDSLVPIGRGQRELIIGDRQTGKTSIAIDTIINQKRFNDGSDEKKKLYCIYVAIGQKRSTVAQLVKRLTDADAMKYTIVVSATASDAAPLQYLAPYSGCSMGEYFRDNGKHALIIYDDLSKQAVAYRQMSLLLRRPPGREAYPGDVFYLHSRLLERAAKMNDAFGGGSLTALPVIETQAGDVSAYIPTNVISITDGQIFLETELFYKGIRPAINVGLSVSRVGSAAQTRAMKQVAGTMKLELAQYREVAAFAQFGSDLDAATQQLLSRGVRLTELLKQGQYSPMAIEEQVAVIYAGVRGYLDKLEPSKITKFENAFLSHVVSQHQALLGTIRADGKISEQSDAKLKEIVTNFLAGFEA
UniProt P68871: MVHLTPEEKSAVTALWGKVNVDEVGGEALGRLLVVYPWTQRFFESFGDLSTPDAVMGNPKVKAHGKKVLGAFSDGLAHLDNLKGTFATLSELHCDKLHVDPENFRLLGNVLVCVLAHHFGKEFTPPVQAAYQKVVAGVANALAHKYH
UniProt O00483: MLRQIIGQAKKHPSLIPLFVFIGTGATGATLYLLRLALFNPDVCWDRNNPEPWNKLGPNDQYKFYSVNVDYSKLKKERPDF
UniProt P51148: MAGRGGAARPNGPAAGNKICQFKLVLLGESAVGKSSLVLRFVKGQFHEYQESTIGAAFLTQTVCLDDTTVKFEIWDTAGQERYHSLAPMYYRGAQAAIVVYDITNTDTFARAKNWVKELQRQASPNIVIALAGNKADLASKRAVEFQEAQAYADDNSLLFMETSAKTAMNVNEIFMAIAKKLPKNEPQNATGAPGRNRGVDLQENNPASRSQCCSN
UniProt Q9NP72: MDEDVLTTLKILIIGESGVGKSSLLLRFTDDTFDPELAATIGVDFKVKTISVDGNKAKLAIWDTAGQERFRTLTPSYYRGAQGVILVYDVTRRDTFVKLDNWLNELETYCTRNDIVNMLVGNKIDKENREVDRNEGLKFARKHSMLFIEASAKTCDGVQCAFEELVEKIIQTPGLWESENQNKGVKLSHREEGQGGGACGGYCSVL
UniProt Q15311: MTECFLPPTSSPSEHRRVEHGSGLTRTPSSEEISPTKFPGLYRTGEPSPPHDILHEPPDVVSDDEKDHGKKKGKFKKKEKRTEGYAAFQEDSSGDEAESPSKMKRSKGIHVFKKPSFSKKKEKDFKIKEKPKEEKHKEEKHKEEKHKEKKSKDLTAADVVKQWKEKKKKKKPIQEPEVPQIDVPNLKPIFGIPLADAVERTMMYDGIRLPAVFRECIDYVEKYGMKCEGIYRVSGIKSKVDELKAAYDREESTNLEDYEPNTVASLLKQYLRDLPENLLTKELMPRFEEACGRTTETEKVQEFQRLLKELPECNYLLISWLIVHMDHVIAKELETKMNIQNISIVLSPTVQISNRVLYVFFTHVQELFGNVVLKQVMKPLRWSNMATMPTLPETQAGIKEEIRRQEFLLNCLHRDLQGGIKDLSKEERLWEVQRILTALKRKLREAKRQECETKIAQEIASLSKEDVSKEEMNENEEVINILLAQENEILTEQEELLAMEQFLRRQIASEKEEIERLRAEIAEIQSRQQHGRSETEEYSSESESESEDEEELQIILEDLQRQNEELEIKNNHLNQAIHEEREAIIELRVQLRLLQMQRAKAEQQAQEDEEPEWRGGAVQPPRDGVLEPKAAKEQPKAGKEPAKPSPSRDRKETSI
UniProt P63208: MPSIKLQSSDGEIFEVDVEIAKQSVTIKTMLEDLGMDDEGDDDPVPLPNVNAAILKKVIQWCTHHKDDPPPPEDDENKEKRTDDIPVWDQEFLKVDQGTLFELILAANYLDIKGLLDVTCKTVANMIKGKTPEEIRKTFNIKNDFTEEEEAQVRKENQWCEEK
UniProt Q3ZCQ8, residues 45-353: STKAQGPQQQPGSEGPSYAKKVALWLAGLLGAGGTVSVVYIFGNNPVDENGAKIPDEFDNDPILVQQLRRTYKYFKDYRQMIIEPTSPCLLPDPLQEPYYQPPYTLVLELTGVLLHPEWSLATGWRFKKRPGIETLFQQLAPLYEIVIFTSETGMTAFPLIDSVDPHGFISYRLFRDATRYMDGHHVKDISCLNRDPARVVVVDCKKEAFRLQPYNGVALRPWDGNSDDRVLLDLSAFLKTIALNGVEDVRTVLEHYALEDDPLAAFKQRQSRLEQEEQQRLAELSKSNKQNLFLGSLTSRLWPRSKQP
UniProt Q9BQE3: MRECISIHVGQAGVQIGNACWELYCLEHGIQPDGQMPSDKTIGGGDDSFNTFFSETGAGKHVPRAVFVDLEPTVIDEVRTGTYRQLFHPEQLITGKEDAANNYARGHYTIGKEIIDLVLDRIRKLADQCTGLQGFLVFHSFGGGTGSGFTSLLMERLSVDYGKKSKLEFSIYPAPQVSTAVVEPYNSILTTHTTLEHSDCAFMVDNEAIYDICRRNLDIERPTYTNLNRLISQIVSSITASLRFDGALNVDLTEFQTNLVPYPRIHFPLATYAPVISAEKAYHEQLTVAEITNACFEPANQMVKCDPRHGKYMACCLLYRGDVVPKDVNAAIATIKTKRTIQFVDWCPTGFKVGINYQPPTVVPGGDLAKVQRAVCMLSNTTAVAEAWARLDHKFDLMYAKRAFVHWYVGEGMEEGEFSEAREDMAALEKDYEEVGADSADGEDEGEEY
UniProt Q9NYU2, residues 43-1555: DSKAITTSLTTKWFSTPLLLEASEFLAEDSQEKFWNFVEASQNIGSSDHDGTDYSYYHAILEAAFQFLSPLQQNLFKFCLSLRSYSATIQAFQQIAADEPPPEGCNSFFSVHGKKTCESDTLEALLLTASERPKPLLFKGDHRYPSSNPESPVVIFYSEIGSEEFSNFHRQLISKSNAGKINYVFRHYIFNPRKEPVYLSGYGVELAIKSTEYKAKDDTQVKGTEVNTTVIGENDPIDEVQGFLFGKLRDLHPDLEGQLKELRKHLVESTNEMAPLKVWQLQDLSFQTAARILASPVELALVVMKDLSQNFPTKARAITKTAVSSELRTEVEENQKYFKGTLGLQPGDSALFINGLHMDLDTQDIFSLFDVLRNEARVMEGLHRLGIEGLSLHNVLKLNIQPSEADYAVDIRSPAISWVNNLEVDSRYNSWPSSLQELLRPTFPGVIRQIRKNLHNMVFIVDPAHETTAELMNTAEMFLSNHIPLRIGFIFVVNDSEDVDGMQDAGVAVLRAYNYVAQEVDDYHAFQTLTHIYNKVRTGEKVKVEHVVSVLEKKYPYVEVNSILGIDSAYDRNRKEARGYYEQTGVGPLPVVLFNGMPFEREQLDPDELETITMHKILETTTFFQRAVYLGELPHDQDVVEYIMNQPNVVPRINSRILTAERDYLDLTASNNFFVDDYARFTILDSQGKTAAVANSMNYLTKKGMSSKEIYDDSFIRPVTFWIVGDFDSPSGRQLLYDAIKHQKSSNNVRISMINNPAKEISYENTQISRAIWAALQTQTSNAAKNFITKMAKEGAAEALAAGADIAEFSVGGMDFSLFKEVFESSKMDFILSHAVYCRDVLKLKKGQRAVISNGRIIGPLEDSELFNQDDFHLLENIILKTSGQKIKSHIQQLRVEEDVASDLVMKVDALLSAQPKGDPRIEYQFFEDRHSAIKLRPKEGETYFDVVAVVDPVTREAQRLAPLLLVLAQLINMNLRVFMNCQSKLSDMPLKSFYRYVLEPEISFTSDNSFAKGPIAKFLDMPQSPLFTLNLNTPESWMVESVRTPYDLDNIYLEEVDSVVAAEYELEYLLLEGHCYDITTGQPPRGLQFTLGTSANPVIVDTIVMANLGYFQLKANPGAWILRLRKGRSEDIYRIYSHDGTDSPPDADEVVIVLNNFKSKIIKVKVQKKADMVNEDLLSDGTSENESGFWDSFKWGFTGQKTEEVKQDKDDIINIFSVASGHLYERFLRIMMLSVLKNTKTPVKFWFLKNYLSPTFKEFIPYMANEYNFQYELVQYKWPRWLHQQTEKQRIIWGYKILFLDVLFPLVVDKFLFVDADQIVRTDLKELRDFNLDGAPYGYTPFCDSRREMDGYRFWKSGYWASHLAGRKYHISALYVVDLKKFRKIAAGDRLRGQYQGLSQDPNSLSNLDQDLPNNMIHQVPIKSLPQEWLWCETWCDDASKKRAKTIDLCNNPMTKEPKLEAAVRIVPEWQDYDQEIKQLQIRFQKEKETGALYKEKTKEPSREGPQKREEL
UniProt Q00610: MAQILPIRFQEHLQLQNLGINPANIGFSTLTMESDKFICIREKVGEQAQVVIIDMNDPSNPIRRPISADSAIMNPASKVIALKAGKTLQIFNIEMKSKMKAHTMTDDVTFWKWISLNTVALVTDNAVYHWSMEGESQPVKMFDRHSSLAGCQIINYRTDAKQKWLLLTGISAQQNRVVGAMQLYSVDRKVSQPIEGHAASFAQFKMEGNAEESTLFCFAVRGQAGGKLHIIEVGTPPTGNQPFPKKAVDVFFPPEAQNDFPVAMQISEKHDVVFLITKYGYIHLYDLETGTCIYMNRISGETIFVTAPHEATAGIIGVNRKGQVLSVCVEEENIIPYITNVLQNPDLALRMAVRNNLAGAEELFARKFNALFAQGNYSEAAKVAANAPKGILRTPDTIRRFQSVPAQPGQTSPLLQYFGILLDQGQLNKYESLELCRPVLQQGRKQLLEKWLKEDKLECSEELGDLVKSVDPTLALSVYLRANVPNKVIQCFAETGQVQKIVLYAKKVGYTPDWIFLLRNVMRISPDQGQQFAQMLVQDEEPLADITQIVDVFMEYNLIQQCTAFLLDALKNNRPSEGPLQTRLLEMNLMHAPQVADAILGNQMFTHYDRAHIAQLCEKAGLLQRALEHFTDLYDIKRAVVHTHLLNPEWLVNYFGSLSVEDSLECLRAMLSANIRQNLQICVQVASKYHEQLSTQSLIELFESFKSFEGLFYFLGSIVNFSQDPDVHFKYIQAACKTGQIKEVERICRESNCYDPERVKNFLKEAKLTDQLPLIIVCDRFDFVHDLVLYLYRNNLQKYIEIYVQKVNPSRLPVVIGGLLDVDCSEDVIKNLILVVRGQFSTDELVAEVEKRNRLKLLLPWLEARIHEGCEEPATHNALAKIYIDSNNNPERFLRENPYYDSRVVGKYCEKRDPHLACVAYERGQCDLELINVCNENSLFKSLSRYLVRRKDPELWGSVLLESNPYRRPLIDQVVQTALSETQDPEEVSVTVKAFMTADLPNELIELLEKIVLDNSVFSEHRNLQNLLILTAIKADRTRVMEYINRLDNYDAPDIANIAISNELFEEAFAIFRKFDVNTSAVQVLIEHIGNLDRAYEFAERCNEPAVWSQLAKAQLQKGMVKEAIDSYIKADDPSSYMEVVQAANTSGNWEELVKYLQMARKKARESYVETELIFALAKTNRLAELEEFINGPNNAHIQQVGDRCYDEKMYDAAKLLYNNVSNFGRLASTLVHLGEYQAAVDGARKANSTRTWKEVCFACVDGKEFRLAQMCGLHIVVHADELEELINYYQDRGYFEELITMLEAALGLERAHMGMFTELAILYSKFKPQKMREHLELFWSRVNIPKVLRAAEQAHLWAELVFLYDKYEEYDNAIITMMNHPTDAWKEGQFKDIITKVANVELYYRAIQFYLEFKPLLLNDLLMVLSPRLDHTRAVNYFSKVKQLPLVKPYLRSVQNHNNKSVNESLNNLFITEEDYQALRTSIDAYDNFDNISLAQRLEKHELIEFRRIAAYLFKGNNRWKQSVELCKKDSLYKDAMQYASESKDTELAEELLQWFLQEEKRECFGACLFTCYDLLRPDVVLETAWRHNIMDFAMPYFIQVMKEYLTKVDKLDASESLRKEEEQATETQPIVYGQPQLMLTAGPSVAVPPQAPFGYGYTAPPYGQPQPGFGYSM

T1: human CaSR with FLAG-tag (FLAG-hCaSR) (human) (UniProt P41180)
T1 sequence: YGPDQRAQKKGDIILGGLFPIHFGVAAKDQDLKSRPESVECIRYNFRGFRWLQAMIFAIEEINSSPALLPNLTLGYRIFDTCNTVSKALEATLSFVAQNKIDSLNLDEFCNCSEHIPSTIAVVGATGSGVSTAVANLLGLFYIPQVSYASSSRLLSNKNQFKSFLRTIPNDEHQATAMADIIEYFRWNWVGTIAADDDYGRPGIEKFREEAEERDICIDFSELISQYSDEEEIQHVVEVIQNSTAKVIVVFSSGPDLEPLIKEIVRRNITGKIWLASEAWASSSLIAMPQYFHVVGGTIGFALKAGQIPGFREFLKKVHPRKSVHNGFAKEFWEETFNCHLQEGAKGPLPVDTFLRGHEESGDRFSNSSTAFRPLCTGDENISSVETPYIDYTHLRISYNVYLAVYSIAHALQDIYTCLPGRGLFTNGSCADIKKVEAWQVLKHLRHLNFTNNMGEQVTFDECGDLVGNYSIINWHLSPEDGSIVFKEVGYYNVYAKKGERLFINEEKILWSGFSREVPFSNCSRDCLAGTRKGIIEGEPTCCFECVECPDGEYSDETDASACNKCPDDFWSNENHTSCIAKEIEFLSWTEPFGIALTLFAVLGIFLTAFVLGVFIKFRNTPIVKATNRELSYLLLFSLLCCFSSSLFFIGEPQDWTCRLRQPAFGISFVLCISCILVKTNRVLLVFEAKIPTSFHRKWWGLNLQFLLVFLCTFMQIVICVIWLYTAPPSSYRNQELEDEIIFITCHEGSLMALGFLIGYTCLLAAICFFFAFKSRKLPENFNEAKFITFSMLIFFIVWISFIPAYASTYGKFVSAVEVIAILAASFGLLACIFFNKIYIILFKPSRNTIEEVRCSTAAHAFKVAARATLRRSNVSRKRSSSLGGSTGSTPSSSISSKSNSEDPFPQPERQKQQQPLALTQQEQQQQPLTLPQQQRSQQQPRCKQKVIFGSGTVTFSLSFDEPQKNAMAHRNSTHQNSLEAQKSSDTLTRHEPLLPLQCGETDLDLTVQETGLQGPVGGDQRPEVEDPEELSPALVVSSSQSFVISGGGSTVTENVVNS

B1: MT-ATP8 (protein, UniProt P03928 1-68)
chain: MPQLNTTVWPTMITPMLLTLFLITQLKMLNTNYHLPPSPKPMKMKNYNKPWEPKWTKICSLHSLPPQS
B2: YWHAQ (14-3-3 θ) (protein, UniProt P27348 1-245)
chain: MEKTELIQKAKLAEQAERYDDMATCMKAVTEQGAELSNEERNLLSVAYKNVVGGRRSAWRVISSIEQKTDTSDKKLQLIKDYREKVESELRSICTTVLELLDKYLIANATNPESKVFYLKMKGDYFRYLAEVACGDDRKQTIDNSQGAYQEAFDISKKEMQPTHPIRLGLALNFSVFYYEILNNPELACTLAKTAFDEAIAELDTLNEDSYKDSTLIMQLLRDNLTLWTSDSAGEECDAAEGAEN
B3: YWHAG (14-3-3 γ) (protein, UniProt P61981 1-247)
chain: MVDREQLVQKARLAEQAERYDDMAAAMKNVTELNEPLSNEERNLLSVAYKNVVGARRSSWRVISSIEQKTSADGNEKKIEMVRAYREKIEKELEAVCQDVLSLLDNYLIKNCSETQYESKVFYLKMKGDYYRYLAEVATGEKRATVVESSEKAYSEAHEISKEHMQPTHPIRLGLALNYSVFYYEIQNAPEQACHLAKTAFDDAIAELDTLNEDSYKDSTLIMQLLRDNLTLWTSDQQDDDGGEGNN
B4: TMED9 (p24) (protein, UniProt Q9BVK6 38-235)
chain: LYFHIGETEKKCFIEEIPDETMVIGNYRTQLYDKQREEYQPATPGLGMFVEVKDPEDKVILARQYGSEGRFTFTSHTPGEHQICLHSNSTKFSLFAGGMLRVHLDIQVGEHANDYAEIAAKDKLSELQLRVRQLVEQVEQIQKEQNYQRWREERFRQTSESTNQRVLWWSILQTLILVAIGVWQMRHLKSFFEAKKLV
B5: WDR6 (protein, UniProt Q9NNW5 1-1121)
chain: MDALEDYVWPRATSELILLPVTGLECVGDRLLAGEGPDVLVYSLDFGGHLRMIKRVQNLLGHYLIHGFRVRPEPNGDLDLEAMVAVFGSKGLRVVKISWGQGHFWELWRSGLWNMSDWIWDARWLEGNIALALGHNSVVLYDPVVGCILQEVPCTDRCTLSSACLIGDAWKELTIVAGAVSNQLLVWYPATALADNKPVAPDRRISGHVGIIFSMSYLESKGLLATASEDRSVRIWKVGDLRVPGGRVQNIGHCFGHSARVWQVKLLENYLISAGEDCVCLVWSHEGEILQAFRGHQGRGIRAIAAHERQAWVITGGDDSGIRLWHLVGRGYRGLGVSALCFKSRSRPGTLKAVTLAGSWRLLAVTDTGALYLYDVEVKCWEQLLEDKHFQSYCLLEAAPGPEGFGLCAMANGEGRVKVVPINTPTAAVDQTLFPGKVHSLSWALRGYEELLLLASGPGGVVACLEISAAPSGKAIFVKERCRYLLPPSKQRWHTCSAFLPPGDFLVCGDRRGSVLLFPSRPGLLKDPGVGGKARAGAGAPVVGSGSSGGGNAFTGLGPVSTLPSLHGKQGVTSVTCHGGYVYTTGRDGAYYQLFVRDGQLQPVLRQKSCRGMNWLAGLRIVPDGSMVILGFHANEFVVWNPRSHEKLHIVNCGGGHRSWAFSDTEAAMAFAYLKDGDVMLYRALGGCTRPHVILREGLHGREITCVKRVGTITLGPEYGVPSFMQPDDLEPGSEGPDLTDIVITCSEDTTVCVLALPTTTGSAHALTAVCNHISSVRAVAVWGIGTPGGPQDPQPGLTAHVVSAGGRAEMHCFSIMVTPDPSTPSRLACHVMHLSSHRLDEYWDRQRNRHRMVKVDPETRYMSLAVCELDQPGLGPLVAAACSDGAVRLFLLQDSGRILQLLAETFHHKRCVLKVHSFTHEAPNQRRRLLLCSAATDGSLAFWDLTTMLDHDSTVLEPPVDPGLPYRLGTPSLTLQAHSCGINSLHTLPTREGHHLVASGSEDGSLHVFVLAVEMLQLEEAVGEAGLVPQLRVLEEYSVPCAHAAHVTGLKILSPSIMVSASIDQRLTFWRLGHGEPTFMNSTVFHVPDVADMDCWPVSPEFGHRCALGGQGLEVYNWYD
B6: SRPR (protein, UniProt P08240 1-638)
chain: MLDFFTIFSKGGLVLWCFQGVSDSCTGPVNALIRSVLLQERGGNNSFTHEALTLKYKLDNQFELVFVVGFQKILTLTYVDKLIDDVHRLFRDKYRTEIQQQSALSLLNGTFDFQNDFLRLLREAEESSKIRAPTTMKKFEDSEKAKKPVRSMIETRGEKPKEKAKNSKKKGAKKEGSDGPLATSKPVPAEKSGLPVGPENGVELSKEELIRRKREEFIQKHGRGMEKSNKSTKSDAPKEKGKKAPRVWELGGCANKEVLDYSTPTTNGTPEAALSEDINLIRGTGSGGQLQDLDCSSSDDEGAAQNSTKPSATKGTLGGMFGMLKGLVGSKSLSREDMESVLDKMRDHLIAKNVAADIAVQLCESVANKLEGKVMGTFSTVTSTVKQALQESLVQILQPQRRVDMLRDIMDAQRRQRPYVVTFCGVNGVGKSTNLAKISFWLLENGFSVLIAACDTFRAGAVEQLRTHTRRLSALHPPEKHGGRTMVQLFEKGYGKDAAGIAMEAIAFARNQGFDVVLVDTAGRMQDNAPLMTALAKLITVNTPDLVLFVGEALVGNEAVDQLVKFNRALADHSMAQTPRLIDGIVLTKFDTIDDKVGAAISMTYITSKPIVFVGTGQTYCDLRSLNAKAVVAALMKA
B7: SRPRB (protein, UniProt Q9Y5M8 1-271)
chain: MASADSRRVADGGGAGGTFQPYLDTLRQELQQTDPTLLSVVVAVLAVLLTLVFWKLIRSRRSSQRAVLLVGLCDSGKTLLFVRLLTGLYRDTQTSITDSCAVYRVNNNRGNSLTLIDLPGHESLRLQFLERFKSSARAIVFVVDSAAFQREVKDVAEFLYQVLIDSMGLKNTPSFLIACNKQDIAMAKSAKLIQQQLEKELNTLRVTRSAAPSTLDSSSTAPAQLGKKGKEFEFSQLPLKVEFLECSAKGGRGDVGSADIQDLEKWLAKIA

Biological target: T1, human CaSR with FLAG-tag (FLAG-hCaSR) (human)
Assay: affinity purification with mass spectrometry; anti-FLAG M2 on Protein G Dynabeads, 1.0 mg cleared lysate (1% Triton X-100, 150 mM NaCl, Tris pH 7.4) of HEK293 cells transfected with FLAG-hCaSR or empty pcDNA3.1, 10 h at 4 °C; cells serum-starved, then treated with 4 mM Ca2+ or 2 mM EGTA for 2 h; on-bead digestion, LC-MS/MS, triplicates; hits at least twofold over the negative control, P ≤ 0.05

binding, binds:
B1
B2
B3
B4
B5
B6
B7

Biological target: T1, human CaSR with FLAG-tag (FLAG-hCaSR) (human)
Assay: as above
Remark: another data set of the same source

binding, binds:
78-kDa glucose regulated protein (GRP78), endogenous (from UniProt P11021 19-654)
ATP2A2/SERCA-2b (from UniProt P16615-1 1-1042)
ATP5A1 (from UniProt P25705 44-553)
CANX (calnexin) (from UniProt P27824 21-592)
DNAJ1 (human (endogenous in HEK293))
GRP94 (from UniProt P14625 22-803)
HBB (from UniProt P68871 1-147)
HSP90AA1 (from UniProt P07900 1-732)
HSPD1 (from UniProt P10809 27-573)
NDUFA4 (from UniProt O00483 1-81)
PDIA3 (from UniProt P30101 25-505)
RAB5c (from UniProt P51148 1-216)
RAB6 (human (endogenous in HEK293))
RAB18 (from UniProt Q9NP72 1-206)
RALBP1 (from UniProt Q15311 1-655)
RANBP2 (from UniProt P49792 1-3224)
SKP1 (from UniProt P63208 1-163)
STUB1 (from UniProt Q9UNE7 1-303)
TIMM50 (from UniProt Q3ZCQ8 45-353)
Tubulin α-1C (TUBA1C) (from UniProt Q9BQE3 1-449)
UGGT1 (from UniProt Q9NYU2 43-1555)
VAPB (from UniProt O95292 1-243)
YWHAE (14-3-3 ε) (from UniProt P62258 1-255)
YWHAZ (14-3-3 ζ) (from UniProt P63104 1-245)
clathrin heavy chain (CLTC) (from UniProt Q00610 1-1675)
